At least one compound was matched to its structure with a doubt left.
System: AML12 hepatocytes
Assay: Intracellular NAD+ levels in AML12 hepatocytes (dose-response and time course)
Format: cell-based
Conditions: AML12 hepatocytes (FIG. 3)
Protocol: Starting at levels at a concentration of 10 μM, NRH achieved similar increases in intracellular NAD+ levels to those reached with NR at 50-fold higher concentrations. NRH achieved maximal effects on NAD+ synthesis around the millimolar range, managing to increase intracellular NAD+ levels by more than 10-fold.
NRH actions were also extremely fast, as significant increases in NAD+ levels were observed within 5 minutes after NRH treatment.
Even at such relatively low dose, NRH achieved similar increases in intracellular NAD+ levels to those reached with NR at 50-fold higher concentrations. NRH achieved maximal effects on NAD+ synthesis around the millimolar range, managing to increase intracellular NAD+ levels by more than 10-fold.
NRH actions were also extremely fast (FIG. 3), as significant increases in NAD+ levels were observed within 5 minutes after NRH treatment.

## NC(=O)C1=CN([C@@H]2O[C@H](CO)[C@@H](O)[C@H]2O)C=CC1 [NRH, reduced nicotinamide riboside]
  time of peak NAD+ levels after treatment: 45 min and 60 min

Source: patent US20220233565A1, “REDUCED NICOTINAMIDERIBOSIDES FOR TREATING/PREVENTING SKELETAL MUSCLE DISEASE” (SOCIETE DES PRODUITS NESTLE S.A., priority 2019, published 2022)
